Assay results from PMC8319910.
No constants are given. Whether binding was seen depends on the method and setting. Binding seen in cells or lysates may run through a third protein. Some results given as binding are weak or reduced against the parent protein; the word gives no strength.

By UniProt entry, the sequences of proteins in these tests, tags left out. Where a name states a change or a piece, a line headed by the entry shows the natural chain unless it says otherwise.
UniProt P05556: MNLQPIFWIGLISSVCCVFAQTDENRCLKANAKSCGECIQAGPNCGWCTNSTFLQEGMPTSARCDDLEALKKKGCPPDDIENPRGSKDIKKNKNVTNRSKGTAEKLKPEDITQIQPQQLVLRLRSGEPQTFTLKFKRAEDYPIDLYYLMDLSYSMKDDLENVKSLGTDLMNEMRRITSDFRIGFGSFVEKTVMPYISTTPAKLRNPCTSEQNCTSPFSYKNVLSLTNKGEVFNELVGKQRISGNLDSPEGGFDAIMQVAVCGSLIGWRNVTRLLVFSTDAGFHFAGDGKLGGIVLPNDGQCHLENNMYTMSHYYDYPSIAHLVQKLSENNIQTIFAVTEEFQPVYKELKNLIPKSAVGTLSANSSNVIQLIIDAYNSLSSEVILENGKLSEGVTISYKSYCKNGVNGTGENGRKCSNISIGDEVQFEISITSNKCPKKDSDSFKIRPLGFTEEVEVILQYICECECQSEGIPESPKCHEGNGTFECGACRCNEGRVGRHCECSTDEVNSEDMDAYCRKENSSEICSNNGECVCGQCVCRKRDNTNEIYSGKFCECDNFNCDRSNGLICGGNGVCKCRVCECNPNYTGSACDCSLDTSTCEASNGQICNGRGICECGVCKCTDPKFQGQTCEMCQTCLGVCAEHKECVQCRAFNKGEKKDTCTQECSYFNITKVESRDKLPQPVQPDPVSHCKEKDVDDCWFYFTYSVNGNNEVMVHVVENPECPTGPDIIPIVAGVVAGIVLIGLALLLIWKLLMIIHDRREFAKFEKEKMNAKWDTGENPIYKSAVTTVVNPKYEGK

Biological target: T1, Neuropilin-2 (human (endogenous in BxPC-3)) (UniProt O60462)
T1 sequence: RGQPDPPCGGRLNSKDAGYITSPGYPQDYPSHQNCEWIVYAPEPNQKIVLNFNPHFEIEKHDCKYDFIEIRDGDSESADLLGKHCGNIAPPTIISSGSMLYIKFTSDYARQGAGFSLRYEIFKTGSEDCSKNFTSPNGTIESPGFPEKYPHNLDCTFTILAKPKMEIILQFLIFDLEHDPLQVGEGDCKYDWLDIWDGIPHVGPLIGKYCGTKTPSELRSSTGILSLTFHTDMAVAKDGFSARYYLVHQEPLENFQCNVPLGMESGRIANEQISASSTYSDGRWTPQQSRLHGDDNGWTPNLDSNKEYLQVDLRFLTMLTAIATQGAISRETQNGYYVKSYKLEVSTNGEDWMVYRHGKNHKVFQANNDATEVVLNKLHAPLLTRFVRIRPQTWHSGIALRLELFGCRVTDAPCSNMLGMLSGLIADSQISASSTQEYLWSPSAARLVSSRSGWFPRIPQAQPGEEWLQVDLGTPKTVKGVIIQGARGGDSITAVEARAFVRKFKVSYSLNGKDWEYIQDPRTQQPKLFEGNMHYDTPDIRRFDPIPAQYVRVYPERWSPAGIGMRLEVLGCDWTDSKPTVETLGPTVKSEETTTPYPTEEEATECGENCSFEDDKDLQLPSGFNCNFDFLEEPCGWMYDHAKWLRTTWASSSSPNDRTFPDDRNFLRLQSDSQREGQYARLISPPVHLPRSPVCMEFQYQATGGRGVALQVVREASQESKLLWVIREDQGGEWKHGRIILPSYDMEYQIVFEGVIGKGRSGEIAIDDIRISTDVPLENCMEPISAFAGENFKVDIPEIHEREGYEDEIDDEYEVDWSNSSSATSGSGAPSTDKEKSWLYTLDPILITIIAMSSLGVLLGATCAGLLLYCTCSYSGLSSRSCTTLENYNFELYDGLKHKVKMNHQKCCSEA
Experiment: co-IP; BxPC-3 cell lysate; total protein incubated with 1 μg NRP2 antibody and 10 μL protein A/G beads overnight at 4°C, blot with anti-integrinβ1; cells pre-incubated with PBS (-) or N2E4 for 48 h

binding: binds
Substance: integrinβ1 (from UniProt P05556 21-798) (receptor)
